Consider 17 molecules from PubChem BioAssay (NCATS).

Test [1] is described as follows: qHTS for identification of novel therapeutic agents for treatment of microphthalmiaassociated transcription factor (MiT) renal cell carcinoma (RCC) (AID 1963991). The note with it: CellTiter-Glo, 48 h; for z-score: stronger effect = lower value. The procedure, abridged:
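Three TFE3-fusion RCC lines (UOK109, UOK124, UOK145), 500 cells/well in complete medium, were treated with MIPE 4.0 compounds for 48 hours at 37 C. Viability was by CellTiter-Glo luminescence, normalized to DMSO (100%) and empty wells (0%); curves fitted over 11 concentrations.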

Test [2] can be described thus: S16 Schwann cell PMP22 intronic element beta-lactamase assay (AID 624044). The note with it: S16 rat Schwann cells, PMP22 element beta-lactamase FRET, 24 h. The procedure, abridged: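 Rat S16 Schwann cells with beta-Lac driven by a PMP22 intronic element, compound-treated 24 h at 37 °C. LiveBLAzer FRET B/G read: 460 nm normalized to potassium clavulanate vs DMSO; 535 nm FRET as viability; concentration-effect curves classified.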

The nature of test [3]: qHTS drug screen for cell cycle checkpoint inhibitors in PARPi-resistant BRCA-mutant ovarian cancer cell lines. (AID 1963452). To be noted: PEO1/OlaR viability, CellTiter-Glo luminescence, 96 h. The procedure, abridged: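 PEO1, PEO4 and PEO1/OlaR ovarian cancer cells, 600 per well, exposed 96 h at 37C to a dilution series. Viability read by CellTiter-Glo luminescence, normalized to DMSO and empty wells; activity summarized as Z-AUC.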

Test [4] can be described thus: Nrf2 qHTS screen for inhibitors: Validation (AID 493153). To be noted: A549 ARE-Fluc reporter, 18-24 h; AC50: CellTiter-Fluor fluorescence read, measured here: cytotoxicity CellTiter-Fluor AC50; viability change: measured here: cytotoxicity max response. The gist of the method:
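Luminescence from an ARE-firefly luciferase reporter in A549 cells gives Nrf2 inhibition; an earlier CellTiter-Fluor fluorescent read flags cytotoxicity. Cells in 5% FBS OPTI-MEM received compound dilution series for 18-24 h at 37°C.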

Test [5] in a line: qHTS assay for small molecule antagonists of androgen receptor signaling (AID 588516). The note with it: AR-UAS-bla HEK293, beta-lactamase ratio, antagonist mode, 16 h; measured here: W460 blue channel fit. The gist of the method:
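Cells were plated and incubated 5 h, compounds added in titration, then R1881 (10 nM final) as agonist. After 16 h at 37 C, CCF4 substrate was loaded for 2 h at room temperature and fluorescence measured.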

Test [6] in a line: qHTS assay for small molecule antagonists of peroxisome proliferator-activated receptor delta signaling (AID 588535).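 Further: cells co-treated with a PPAR-delta agonist as stimulator during compound exposure.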 To be noted: HEK293T PPARd-UAS-bla, beta-lactamase FRET ratio, 18 h; 460 nm channel. The procedure, abridged:
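HEK293T PPAR-delta-UAS-bla cells, 4000/well, 2% charcoal/dextran FBS; 5 h 37 C; cpd titration; 18 h 37 C; CCF4 2 h RT; FI 460/530 nm; Hill fit → IC50, efficacy.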

Test [7] in a line: qHTS assay for small molecule antagonists of peroxisome proliferator-activated receptor gamma signaling (AID 588537). The note with it: HEK293 PPARg-UAS-bla, beta-lactamase ratio, antagonist mode; measured here: W460 blue channel. The procedure, abridged:
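Antagonist mode, beta-lactamase reporter in HEK293; charcoal/dextran FBS 1%; 3000 cells/well, 37 C 6-6.5 h; cpd titration + rosiglitazone 50 nM final, 16 h 37 C; CCF4, 2 h RT; 460/530 nm; Hill fit → IC50, efficacy.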

Test [8] in a line: qHTS assay for small molecule agonists of retinoid X receptor alpha signaling (AID 588544). The note with it: HEK293T RXRa-UAS-bla, beta-lactamase reporter, 18 h; 530 nm emission.
Test [9] in a line: qHTS Validation Assay to Find Inhibitors of Chronic Active B-Cell Receptor Signaling (AID 485345). To be noted: ABC-DLBCL cells, chronic BCR signaling reporter. The gist of the method: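 Read-out: ratio of filter-corrected green (IkappaBalpha fusion) to red (native) luciferase signal in doxycycline-induced TMD8 cells after 4 h at 37C. Titration spanned 46 uM–3 nM; Data were normalised to basal cells and 10 uM MG-132 wells.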

Test [10] can be described thus: qHTS Assay for Modulators of Human Peripheral Myelin Protein 22 (PMP22) Expression/Activity (AID 1967). The note with it: Cell-based PMP22 reporter, dual-color luciferase ratio; measured here: red reporter channel AC50; EF-alpha promoter control reporter in MSC80 mouse Schwann cells. The gist of the method:
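Quantitative HTS in a mouse Schwann cell line expressing dual click beetle luciferases: Pmp22 promoter (green) and control EF-alpha promoter (red). After 24h treatment, corrected green/red signal ratio gave %Activity relative to untreated cells.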

A short description of test [11]: qHTS assay for small molecule antagonists of vitamin D receptor signaling (AID 588541). The note with it: HEK293T VDR-UAS-bla, beta-lactamase ratio, antagonist mode; measured here: W460 blue channel (cell viability).
Test [12] in a line: qHTS assay for small molecule antagonists of retinoid X receptor alpha signaling (AID 588546).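 Further: cells stimulated with 9-cis-retinoic acid as agonist; on the % scale 0 is the no-effect control and ±100 the full control effect.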 To be noted: HEK293T RXRa-UAS-bla, beta-lactamase ratio, antagonist mode; measured here: W530 green channel, cytotoxicity proxy. The gist of the method: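 Beta-lactamase reporter inhibition, read as CCF4 fluorescence ratio (ex 405, em 460/530 nm) after 2 h at RT. HEK293T UAS-bla cells, 2500/well, were stimulated with 9-cis-RA at 500 or 100 nM final alongside test compound for 18 h at 37 C.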

Where [13] appears, read: TFE3-RCC viability, measured here: UOK124 cell viability.
Setting [14] is: TFE3-RCC viability, measured here: UOK145 cell viability.
The mark [15] stands for this setting: measured here: 460 nm blue channel.
Where [16] appears, read: TFE3-RCC UOK109 viability, measured here: UOK109 Z-AUC.
Where [17] appears, read: TFE3-RCC viability, measured here: UOK124 Z-AUC.
Setting [18] is: TFE3-RCC viability, measured here: UOK145 Z-AUC.
The mark [19] stands for this setting: measured here: PEO1 parental viability.
The mark [20] stands for this setting: measured here: 530 nm viability channel.

Molecules are shown by their SMILES. “And” between values parts separate entries of the source, which are not always exact repeats. Equal entries are not always repeated. The list shows a part of the results. Shown are side measurements of this screen, not its main read-out; they come without a call. For some of these results: The list favours compounds with an active or inconclusive main result. For some of these results: The note in brackets gives the kind of curve behind each potency; many fits are weak.

Regarding `CC(NCc1ccc2c(c1)nc(NC(=O)c1ccc(-c3cn[nH]c3)s1)n2CC(C)(C)O)C(C)(C)C` (stereo not drawn), the AC50 in test [1] (setting [13]) is 0.372 µM [falling, full curve]; in test [1] (setting [14]), 0.935 µM [falling, full curve].
Take `Cc1cnc(C(=O)NCCc2ccc(S(=O)(=O)NC(=O)NC3CCCCC3)cc2)cn1`: the half-maximal activity concentration (AC50) in test [2] (setting [15]) is 7.07 µM [falling, partial curve, poor fit]; in test [3] (measured here: PEO4 viability), 24.5 µM [falling, single point]; in [1] (setting [13]), 26.4 µM [falling, single point]. The z-score is -0.571 in test [1] (setting [16]), 0.434 in test [1] (setting [17]) and 0.664 in [1] (setting [18]).
Take `Cc1ccc(C(=O)Nc2cccc(C(F)(F)F)c2)cc1Nc1nc(-c2cccnc2)nc2c1cnn2C`: the AC50 is 7.76 µM [falling, single point] in test [3] (setting [19]); 10.5 µM [falling, partial curve] in test [1] (setting [13]); 8.33 µM [falling, full curve] in test [1] (setting [14]). Besides, the z-score in test [1] (setting [16]) was -0.199; in [1] (setting [17]), -0.769; in [1] (setting [18]), -0.706.
Turning to `O=C1NC(=O)/C(=C/c2ccc3nccnc3c2)S1`, the half-maximal activity concentration (AC50) in test [4] is 10.3 µM [falling, partial curve]; in [3] (measured here: PEO4 viability) it was 19.5 µM [rising, single point]. Also, the viability change in test [4] was -40.4%.
As for `Oc1ccc(C2CCN(c3ccnc4ccccc34)CC2)cc1O`, the AC50 in [3] (setting [19]) was 4.36 µM [falling, full curve]; in [1] (setting [13]), 16.6 µM [falling, partial curve]; in test [1] (setting [14]) it was 16.6 µM [falling, partial curve, poor fit]. Moreover, the z-score is -0.133 in test [1] (setting [16]), 0.0909 in [1] (setting [17]) and 0.564 in test [1] (setting [18]).
Take `Cc1ccc(-c2cc(C(F)(F)F)nn2-c2ccc(S(N)(=O)=O)cc2)cc1`: the AC50 in test [5] was 50.1 µM [falling, partial curve, poor fit]; in test [7], 35.5 µM [falling, partial curve, poor fit]; in [3] (setting [19]), 13.8 µM [falling, single point]; in test [1] (setting [13]), 26.4 µM [falling, single point]. For the same molecule, the figures for the max response in [6] and in test [8] were 164% and 52.9%, respectively. Further, the z-score in test [1] (setting [16]) turned out to be 1.08; in test [1] (setting [17]) it was 0.484; in test [1] (setting [18]), 0.71.
On to `CCn1cc(C(=O)O)c(=O)c2cc(F)c(N3CCNCC3)cc21`, for which the AC50 in [2] (setting [15]) was 2.39 µM [falling, full curve, poor fit]; in test [2] (setting [20]), 2.24 µM [falling, full curve, poor fit]; in test [3] (measured here: PEO4 viability) it was 0.0219 µM [rising, full curve].
In the case of `N[C@@H](Cc1cc(I)c(Oc2cc(I)c(O)c(I)c2)c(I)c1)C(=O)O`, the max response in [6] stood at 157%. Besides, the AC50 in test [7] was 44.7 µM [falling, partial curve, poor fit]; in [3] (setting [19]) it was 0.0389 µM [falling, full curve, poor fit].
For the molecule `CCOC(=O)c1ccc(C#Cc2ccc3c(c2)C(C)(C)CCS3)nc1`, the AC50 in test [2] (setting [15]) is 6.31 µM [falling, full curve, poor fit]; in [3] (measured here: PEO4 viability), 7.76 µM [falling, partial curve].
Take `O=C1NC(=O)/C(=C/c2ccc(-c3ccc(F)cc3O)o2)S1`: the AC50 in test [9] (measured here: CBG/CBR ratio read-out) was 8.2 µM [falling, partial curve]; in test [9] (measured here: CBR control luciferase (viability counter)) it was 16.4 µM [falling, partial curve]; in [4] it was 16.4 µM [falling, partial curve, poor fit]; in test [3] (setting [19]), 0.0871 µM [falling, partial curve, poor fit]. For the same molecule, in [4], the viability change is -22.6%.
Turning to `O=C(NCc1ccccc1)c1csc(Nc2ccncn2)n1`, the AC50 in test [3] (setting [19]) is 2.75 µM [falling, partial curve, poor fit]; in [1] (setting [13]) it was 20.9 µM [falling, partial curve]; in [1] (setting [14]) it was 10.5 µM [falling, partial curve, poor fit]. For the same molecule, the figures for the z-score in [1] (setting [16]), in [1] (setting [17]) and in test [1] (setting [18]) were 0.103, -0.0194 and 0.571, respectively.
Turning to `O=c1c(O)c(-c2cc(O)c(O)c(O)c2)oc2cc(O)cc(O)c12`, the AC50 in test [10] is 84.9 µM [falling, single point]; in test [3] (measured here: PEO4 viability), 17.4 µM [falling, partial curve, poor fit].
For the molecule `Nc1ccn([C@@H]2O[C@H](CO)[C@@H](O)C2O)c(=O)n1` (stereo partly drawn), the viability change in [4] worked out at 4.82%. The AC50 was 3.55 µM [falling, full curve, poor fit] in test [2] (setting [15]); 2.82 µM [falling, full curve, poor fit] in test [2] (setting [20]); 0.11 µM [falling, full curve] in test [3] (setting [19]).
For the molecule `CC(=O)O[C@]1(C(C)=O)CC[C@H]2[C@@H]3C[C@H](C)C4=CC(=O)CC[C@]4(C)[C@H]3CC[C@@]21C`, the max response is 145% and 154% in [6]; 70.9% and 29.2% in test [8]; 62.2% and 25.7% in test [12]. The AC50 in test [7] was 44.7 µM [rising, partial curve]; in test [11], 11.2 µM [rising, full curve, poor fit] and 5.01 µM [rising, full curve, poor fit]; in test [3] (setting [19]) it was 0.0549 µM [falling, full curve, poor fit].
For the molecule `CC(=NNC(=S)N1CCC1)c1ccccn1`, the AC50 in test [1] (setting [13]) is 0.00148 µM [falling, full curve, poor fit]; in [1] (setting [14]) it was 0.0372 µM [falling, full curve].
In the case of `CC(C)Cn1cnc2c(N)nc3ccccc3c21`, the AC50 in [2] (setting [15]) is 0.00999 µM [falling, full curve, poor fit]; in [3] (setting [19]) it was 12 µM [rising, single point]; in [1] (setting [14]) it was 23.5 µM [falling, partial curve]. The z-score worked out at 0.389 in test [1] (setting [16]), 0.244 in [1] (setting [17]) and 0.747 in test [1] (setting [18]).
Regarding `CO[C@H]1C=CC=C(C)C(=O)NC2=CC(=O)C(NCCN(C)C)=C(C[C@@H](C)C[C@H](OC)[C@@H](O)[C@@H](C)C=C(C)[C@@H]1OC(N)=O)C2=O`, the AC50 in test [1] (setting [13]) was 1.32 µM [falling, full curve]; in [1] (setting [14]) it was 1.66 µM [falling, partial curve].
